Data source: PubChem BioAssay AID1053208 (Peter MacCallum Cancer Centre, 2014)
Aim: 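Genes whose silencing cuts survival of bone tumour cells only with doxorubicin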 (primary screen). Cells: mouse osteosarcoma cells, early-passage culture from an engineered mouse model of fibroblastic bone tumour. Reagents: siRNA pool against mouse genes, 40 nM. Time to read-out: about 120 h (48 h before drug, then 72 h with drug). Treatment: doxorubicin 100 nM for 72 h, roughly 30-40% inhibitory dose. Read-out: 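Luminescent ATP signal taken as viability with or without 100 nM doxorubicin for 72 h; mean of two wells set against non-targeting siRNA and turned into robust z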. Direction: viability z-score with doxorubicin and doxorubicin viability vs non-targeting: higher = more viable cells under doxorubicin; viability z-score without drug: higher = more viable cells with knock-down alone; z-score of drug to no-drug ratio: higher = less drug sensitisation by knock-down. Hit rule: 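a pool counts as active when its viability z-score with doxorubicin is -2 or below and its z-score without drug lies between -2 and 2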.
In all, the deposit lists about 17,000 reagents; this is an unselected part. 788 of all reagents (4.7%) count as active. 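Calls rest on z-score classes alone; an extra cut-off of viability at most 70% of control was not applied to them.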 Entries without a mark were called inactive.

| gene symbol | combined z-score class | viability z-score with doxorubicin | viability z-score without drug | z-score of drug to no-drug ratio | doxorubicin viability vs non-targeting |
| --- | --- | --- | --- | --- | --- |
| Med6 | no change with or without drug | 0.56 | 0.17 | 0.56 | 0.99 |
| Col3a1 | no change with or without drug | 0.22 | 0.17 | 0.22 | 0.96 |
| Rell2 | no change with or without drug | -0.34 | -0.51 | 0.11 | 0.91 |
| Cs | low cell count with doxorubicin only (active) | -2.02 | 0.17 | -2.14 | 0.76 |
| Wrap53 | no change with or without drug | 0.22 | 1.18 | -0.45 | 0.96 |
| Pcyt1a | no change with or without drug | 0.45 | 1.85 | -0.67 | 0.98 |
| Lin54 | low cell count without drug only | -0.9 | -2.02 | 0.67 | 0.86 |
| Gorab | no change with or without drug | 0.79 | 0.34 | 0.67 | 1.01 |
| Zbtb46 | no change with or without drug | -0.45 | 1.52 | -1.24 | 0.9 |
| Or5p1 | no change with or without drug | 0.67 | 1.01 | 0.11 | 1 |
| Cradd | no change with or without drug | -0.56 | 0.34 | -0.67 | 0.89 |
| Riox1 | low cell count without drug only | 1.01 | -3.88 | 5.06 | 1.03 |
| Poln | no change with or without drug | -1.46 | -0.17 | -1.35 | 0.81 |
| Brip1os | no change with or without drug | -0.45 | 0.84 | -0.9 | 0.9 |
| A930033H14Rik | no change with or without drug | -1.12 | -1.18 | -0.34 | 0.84 |
| Spata24 | no change with or without drug | 1.12 | 0.84 | 0.67 | 1.04 |
| Dnajc16 | no change with or without drug | -0.45 | 0.34 | -0.56 | 0.9 |
| Pcdha9 | low cell count with doxorubicin only (active) | -2.36 | -0.51 | -2.14 | 0.73 |

4 entries from above, ordered by “doxorubicin viability vs non-targeting”, lowest first.
| gene symbol | combined z-score class | viability z-score with doxorubicin | viability z-score without drug | z-score of drug to no-drug ratio | doxorubicin viability vs non-targeting |
| --- | --- | --- | --- | --- | --- |
| Cradd | no change with or without drug | -0.56 | 0.34 | -0.67 | 0.89 |
| Zbtb46 | no change with or without drug | -0.45 | 1.52 | -1.24 | 0.9 |
| Or5p1 | no change with or without drug | 0.67 | 1.01 | 0.11 | 1 |
| Gorab | no change with or without drug | 0.79 | 0.34 | 0.67 | 1.01 |

Next results follow.
| gene symbol | combined z-score class | viability z-score with doxorubicin | viability z-score without drug | z-score of drug to no-drug ratio | doxorubicin viability vs non-targeting |
| --- | --- | --- | --- | --- | --- |
| Esrra | no change with or without drug | 1.35 | 1.18 | 0.67 | 1.06 |
| A930017M01Rik | no change with or without drug | -0.67 | -0.51 | -0.22 | 0.88 |
| Gtpbp2 | no change with or without drug | -0.22 | 0.17 | -0.22 | 0.92 |
| Rbm28 | no change with or without drug | 1.24 | -0.51 | 1.8 | 1.05 |
| Spam1 | no change with or without drug | 0 | 0.17 | 0 | 0.94 |
| Pnpo | no change with or without drug | 0.67 | 0.84 | 0.22 | 1 |
| Pth2 | no change with or without drug | -0.9 | -0.84 | -0.22 | 0.86 |
| Ptgfr | no change with or without drug | -0.22 | -1.18 | 0.79 | 0.92 |
| Gpr33 | no change with or without drug | 0.45 | 0.34 | 0.34 | 0.98 |
| Or4a15 | high cell count without drug only | 1.57 | 2.19 | 0.22 | 1.08 |
| Ssty1 | no change with or without drug | 0.56 | 1.18 | -0.11 | 0.99 |
| Slc22a13 | low cell count without drug only | -1.46 | -2.53 | 0.34 | 0.81 |
| Bfsp2 | no change with or without drug | 0.67 | 0.84 | 0.22 | 1 |
| Anxa3 | low cell count with doxorubicin only (active) | -2.25 | 0.17 | -2.36 | 0.74 |
| Drd1 | no change with or without drug | 0 | 0.34 | -0.11 | 0.94 |
| Rad21 | no change with or without drug | -1.57 | -0.84 | -1.01 | 0.8 |
